Reference: publication PMC7049728, “The full-length structure of Thermus scotoductus OLD defines the ATP hydrolysis properties and catalytic mechanism of Class 1 OLD family nucleases” (Nucleic Acids Research, 2020)
Results are given in words; binding and its absence hold for the method and conditions named. Some binding calls cover weakened binding; strength is not graded here. Each block holds one binder with its values, some of them ahead of it.

Assays:
[1] = target: full-length Thermus scotoductus OLD (Thermus scotoductus) (UniProt E8PLM2); assay: crystal structure; native Ts^FL at 10 mg/ml, sitting drop at 20°C, 0.1 M NaOAc pH 5.8, 0.3 M AmSO4, 7% PEG MME 2000, 5 mM SmCl3 or PrCl3; platinum-soaked; nucleotide-free; monomer in the asymmetric unit, dimer by crystal symmetry; 2.20 Å; both purified
[2] = target: Thermus scotoductus OLD C-terminal region (residues 370-525) (Thermus scotoductus) (UniProt E8PLM2); assay: SEC-MALS; 4 mg/ml loaded on Superdex 200 10/300 Increase; 20 mM HEPES pH 7.5, 150 mM KCl, 5 mM MgCl2, 1 mM DTT; 0.7 ml/min; Ts^FL also in different nucleotide states; both purified

binding [1]: binds
B1: full-length Thermus scotoductus OLD (enzyme, UniProt E8PLM2 1-528, looked up)
chain: MLKRLQVKNFRCLEDIDLPLGPLTAIVGPNGAGKTTILRAIDLVLGDVWPSLRSFRIPQDFINFDTTRAIEITVHFDPPYTQGSFNITAFRLTCKGEDADFHVDLEPLDEGGNVPRYPSGNPLRVGTDMRNHARVLFLDHRRNLAQHLPSIRGSILGRLLQPVRREFKLQDNFKQVYEQAMDLLRTEQVKQIEKTIAETAKQMLGFLGKDAMKSMEIGFGFADPANPFNSLRLQYRESDLTLPGDELGLGIQSAIVVGIFEAFRQLGEKIGTVIIEEPEMYLHPQAQRYFYRLLCEMADKDQCQIIYSTHSPIFADVNRFEALRLVRKDRDDRVVVSYVREEDKSALDNVRNRFKLGGRFDTARNEVLFAKRALLVEGYGDRVAALQLFNQLEVDPDAECIAVVDCGGKAGIELIVGVCKALDIPFVVVHDEDVWPIDERADEETRRKQEQENKAEQEKNQRIQACAGAERVFVVQPSLEAALGIGRNASDKPYRIAEILKTVDVGQPPDALRPFVEAIRQVTRPMEE
notes: Thermus scotoductus OLD (Class 1 OLD family nuclease), UniProt E8PLM2, full-length, residues 1-525; codon-optimised synthetic gene in pET21b; Dimer by SEC-MALS and by crystal symmetry; The crystal model holds residues 1-142, 149-237 and 245-525; also called Ts^FL; Ts OLD; source: E. coli BL21(DE3), purified (65°C heat step, nickel column, HiTrap Q, SEC)

binding [2]: no binding (tested: 4 mg/ml loaded)
B2: Thermus scotoductus OLD C-terminal region (residues 370-525) (domain or fragment, UniProt E8PLM2 370-525)
chain: AKRALLVEGYGDRVAALQLFNQLEVDPDAECIAVVDCGGKAGIELIVGVCKALDIPFVVVHDEDVWPIDERADEETRRKQEQENKAEQEKNQRIQACAGAERVFVVQPSLEAALGIGRNASDKPYRIAEILKTVDVGQPPDALRPFVEAIRQVTRP
